We go through 21 compounds from PubChem BioAssay AID248 (DTP/NCI, 2004).

The experiment deals with L1210 leukemia ip in BDF1 mice, survival T/C. Nature of the experiment: NCI In Vivo Anticancer Drug Screen. Data for tumor model L1210 Leukemia (intraperitoneal) in B6D2F1 (BDF1) mice. The following applies: T/C endpoint: mean survival time, higher T/C = longer survival.
[1] abbreviates: dose: 75.0 mg/kg/injection, schedule: Q01DX001 (ip), vehicle: carboxymethylcellulose (CMC).
The mark [2] stands for this setting: dose: 150.0 mg/kg/injection, schedule: Q01DX001 (ip), vehicle: carboxymethylcellulose (CMC).
[3] abbreviates: dose: 300.0 mg/kg/injection, schedule: Q01DX001 (ip), vehicle: carboxymethylcellulose (CMC).
[4] abbreviates: dose: 40.0 mg/kg/injection, schedule: Q01DX001 (ip), vehicle: saline.
[5] abbreviates: dose: 80.0 mg/kg/injection, schedule: Q01DX001 (ip), vehicle: saline.
Where [6] appears, read: dose: 100.0 mg/kg/injection, schedule: Q01DX001 (ip), vehicle: saline.
[7] abbreviates: dose: 200.0 mg/kg/injection, schedule: Q01DX001 (ip), vehicle: saline.
Setting [8] is: dose: 400.0 mg/kg/injection, schedule: Q01DX001 (ip), vehicle: saline.
Where [9] appears, read: dose: 200.0 mg/kg/injection, schedule: Q04DX003 (ip), vehicle: saline with Tween-80.
The mark [10] stands for this setting: dose: 400.0 mg/kg/injection, schedule: Q04DX003 (ip), vehicle: saline with Tween-80.
Setting [11] is: dose: 400.0 mg/kg/injection, schedule: Q04DX002 (ip), vehicle: Klucel (hydroxypropylcellulose) (HPC).
The mark [12] stands for this setting: dose: 200.0 mg/kg/injection, schedule: Q04DX003 (ip), vehicle: saline.
[13] abbreviates: dose: 400.0 mg/kg/injection, schedule: Q04DX003 (ip), vehicle: saline.
The mark [14] stands for this setting: dose: 400.0 mg/kg/injection, schedule: Q01DX009 (ip), vehicle: Klucel (hydroxypropylcellulose) (HPC).
Setting [15] is: dose: 100.0 mg/kg/injection, schedule: Q04DX003 (ip), vehicle: Klucel (hydroxypropylcellulose) (HPC).
Setting [16] is: dose: 200.0 mg/kg/injection, schedule: Q04DX003 (ip), vehicle: Klucel (hydroxypropylcellulose) (HPC).
The mark [17] stands for this setting: dose: 400.0 mg/kg/injection, schedule: Q04DX003 (ip), vehicle: Klucel (hydroxypropylcellulose) (HPC).
Setting [18] is: dose: 100.0 mg/kg/injection, schedule: Q01DX009 (ip), vehicle: Klucel (hydroxypropylcellulose) (HPC).

The list shows only some results of the screen, not a fair sample: it gathers tests that were run many times, whatever their T/C, doses with no T/C, and many T/C values between a quarter and a half above the control. Further doses and runs are listed elsewhere. T/C is the treated group as % of the vehicle group. Some doses have a count of surviving animals in place of a T/C: the source holds a T/C of zero for them, seemingly a mark for toxic or unscored doses. Some doses without a T/C left all or most animals alive at the check, yet need not have been tolerated: the source hardly ever lists a survival T/C far under the control, and the zero likely stands for such cases as well. Counts of survivors are from the toxicity check (mostly the fifth day) where no day follows; animals may have died later. Schedules are NCI's codes, taken here to give the interval after Q, in days (D) or hours (H), and the number of doses after X. Some schedule codes hold Z or #, which are not explained here. Some structures stand for samples that the source files as different forms (salt, stereo form or complex); doses refer to the form tested. Some entries were tested several times; the results are listed from low to high.

For `C(=N\N=C\c1ccco1)/c1ccco1`, the survivor count by setting is: (dose: 200.0 mg/kg/injection, schedule: Q01DX001 (ip), vehicle: saline with Tween-80) 2 of 6; (dose: 400.0 mg/kg/injection, schedule: Q01DX001 (ip), vehicle: saline with Tween-80) 0 of 3 and 0 of 6.
`C#CCCCCCCl`: where the note is “dose: 400.0 mg/kg/injection, schedule: Q01DX001 (ip), vehicle: other”, the survivor count is 1 of 6.
`c1ccc(N/N=C2/CCN3CCCc4cccc2c43)cc1`: the survivor count by setting is: (dose: 12.5 mg/kg/injection, schedule: Q01DX009 (ip), vehicle: DMSO) 6 of 6; (dose: 50.0 mg/kg/injection, schedule: Q01DX009 (ip), vehicle: DMSO) 5 of 6; (dose: 200.0 mg/kg/injection, schedule: Q04DX003 (ip), vehicle: gum acacia) 0 of 6; (dose: 400.0 mg/kg/injection, schedule: Q04DX003 (ip), vehicle: gum acacia) 0 of 6.
As for `CCC(C#N)N1CC1` (stereo not drawn), the survivor count reads like this: (dose: 60.0 mg/kg/injection, schedule: Q01DX001 (ip), vehicle: saline) 6 of 6; under setting [1], 4 of 6; under setting [2], 1 of 6; under setting [3], 0 of 6.
Turning to `CCCCNC(c1ccc(C[N+]2(C)CCCC2)cc1)C(Cl)(Cl)Cl` (stereo not drawn), the survivor count was 2 of 4 under setting [4]; 1 of 4 under setting [5]; 1 of 4 under setting [6]; 0 of 4 under setting [7]; 0 of 4 under setting [8].
As for `O=c1ccoc(-c2cc(=O)cco2)c1`, the survivor count is, setting by setting: (dose: 100.0 mg/kg/injection, schedule: Q04DX003 (ip), vehicle: saline with Tween-80) 3 of 6; under setting [9], 0 of 6; under setting [10], 1 of 6.
For the compound `C[C@@H](N)[C@@H](O)c1ccccc1`, the survivor count runs as follows: (dose: 120.0 mg/kg/injection, schedule: Q01DX Z (oral), vehicle: saline) 3 of 6; (dose: 240.0 mg/kg/injection, schedule: Q01DX Z (oral), vehicle: saline) 0 of 6.
Take `O=Cc1c(Cl)n(C(=O)c2ccccc2Cl)c2ccccc12`: the survivor count under setting [11] is given as 3 of 3.
On to `CSc1ncc(COP(=S)(OCc2cnc(SC)nc2N)OCc2cnc(SC)nc2N)c(N)n1`, for which the survivor count (dose: 100.0 mg/kg/injection, schedule: Q04DX003 (ip), vehicle: saline) was 6 of 6; the survivor count under setting [12] was 3 of 6; the survivor count under setting [13] was 0 of 6.
On to `C[N+]1(CCCCCNC2=CC(=O)C(NCCCCC[N+]3(C)CCCCC3)=CC2=O)CCCCC1`, for which the survivor count is recorded as 0 of 6 (dose: 0.2 mg/kg/injection, schedule: Q01DX001 (ip), vehicle: saline); 1 of 6 (dose: 0.4 mg/kg/injection, schedule: Q01DX001 (ip), vehicle: saline); 1 of 6 (dose: 0.5 mg/kg/injection, schedule: Q01DX001 (ip), vehicle: saline); 0 of 6 (dose: 0.8 mg/kg/injection, schedule: Q01DX001 (ip), vehicle: saline); 0 of 6 (dose: 1.0 mg/kg/injection, schedule: Q01DX001 (ip), vehicle: saline); 0 of 6 (dose: 2.0 mg/kg/injection, schedule: Q01DX001 (ip), vehicle: saline). Further, the survivor count reads like this: (dose: 4.0 mg/kg/injection, schedule: Q01DX001 (ip), vehicle: saline) 0 of 6; (dose: 5.0 mg/kg/injection, schedule: Q01DX001 (ip), vehicle: saline) 0 of 6; (dose: 8.0 mg/kg/injection, schedule: Q01DX001 (ip), vehicle: saline) 0 of 6; (dose: 10.0 mg/kg/injection, schedule: Q01DX001 (ip), vehicle: saline) 0 of 6; (dose: 20.0 mg/kg/injection, schedule: Q01DX001 (ip), vehicle: saline) 0 of 6; under setting [4], 0 of 6. Also, the survivor count is 0 of 6 under setting [5], 0 of 6 under setting [6], 0 of 6 under setting [7] and 0 of 6 under setting [8].
With `CC1(C)C2CC3C(=CCC4C(=O)OC(=O)C43)C1C2` (stereo not drawn), the survivor count under setting [14] was 3 of 6.
Take `CN(C)c1ccccc1C#N`: for the setting “dose: 400.0 mg/kg/injection, schedule: Q01DX009 (ip), vehicle: carboxymethylcellulose (CMC)”, the survivor count was 1 of 3.
As for `Cn1ccnc1CC(C)(O)c1ccccc1` (stereo not drawn), the survivor count by setting is: (dose: 400.0 mg/kg/injection, schedule: Q01DX001 (ip), vehicle: Klucel (hydroxypropylcellulose) (HPC)) 3 of 6; under setting [14], 1 of 3.
With `Clc1cccc(C[P+](c2ccccc2)(c2ccccc2)c2ccccc2)c1`, the survivor count (dose: 12.5 mg/kg/injection, schedule: Q01DX009 (ip), vehicle: Klucel (hydroxypropylcellulose) (HPC)) is given as 3 of 6; the survivor count (dose: 25.0 mg/kg/injection, schedule: Q01DX009 (ip), vehicle: Klucel (hydroxypropylcellulose) (HPC)) was 0 of 6; the survivor count (dose: 50.0 mg/kg/injection, schedule: Q01DX009 (ip), vehicle: Klucel (hydroxypropylcellulose) (HPC)) is given as 0 of 6; the survivor count (dose: 50.0 mg/kg/injection, schedule: Q04DX003 (ip), vehicle: Klucel (hydroxypropylcellulose) (HPC)) is on record as 0 of 6; the survivor count under setting [15] is 0 of 6; the survivor count under setting [16] is listed as 0 of 6. Besides, under setting [17], the survivor count is reported as 0 of 6.
Take `NC(=S)N/N=C/c1ccc(O)c(C(=O)O)c1`: the survivor count (dose: 500.0 mg/kg/injection, schedule: Q01DX Z (ip), vehicle: methylcellulose (MC)) is recorded as 6 of 6.
For `O=C1NC(=S)S/C1=C\c1ccc([N+](=O)[O-])s1`, the survivor count under setting [11] is reported as 0 of 3.
On to `COc1ccc(OC)c(CCN)c1`, for which the survivor count was 0 of 6 under setting [12] and 0 of 6 under setting [13].
Consider `N=C(N)CCN`, for which the survivor count under setting [8] is 2 of 4.
For `C[N+](C)(C)c1ccc(/C=C2\C=Cc3ccccc32)cc1`, the survivor count was 3 of 6 (dose: 60.0 mg/kg/injection, schedule: Q01DX001 (ip), vehicle: carboxymethylcellulose (CMC)); 1 of 6 under setting [1]; 0 of 6 under setting [2]; 0 of 6 under setting [3].
Consider `NC1CCC(CC2CCCCC2)CC1` (stereo not drawn), for which the survivor count is recorded as 3 of 6 under setting [18], 6 of 6 under setting [15], 0 of 6 under setting [16] and 0 of 6 under setting [17].
As for `CC(C)(C)NC/C(=C\c1ccccc1)C(=O)c1ccccc1`, the survivor count is, setting by setting: under setting [6], 1 of 4; under setting [18], 3 of 6; under setting [7], 1 of 4; (dose: 200.0 mg/kg/injection, schedule: Q01DX009 (ip), vehicle: Klucel (hydroxypropylcellulose) (HPC)) 5 of 6; under setting [9], 0 of 6; under setting [8], 1 of 4. Besides, the survivor count reads like this: under setting [14], 0 of 6; under setting [10], 0 of 6.
